According to patent publication US10196286B2, “Method for removing fluorinated organic compounds from contaminated fluids, and adsorbent component and adsorbent kit used therefor” (Fraunhofer-Gesellschaft zur Förderung der angewandten …, priority 2013, dated 2019):

Assays:
[1] = Adsorption in batch processing (stirred tank reactor sorption), Examples 1 to 10; settings: reagent 1 1 ml/l
[2] = First adsorbent component without solid adsorbent component: precipitation of adduct from raw water

Row | Compound | Concentration PFT (residual concentration of PFT in the filtrate) ([1]; Conc. PFTsorb 25 mg/l) [µg/L] | Concentration PFT (residual concentration of PFT in the filtrate) ([1]; Conc. PFTsorb 50 mg/l) [µg/L] | Concentration PFT (residual concentration of PFT in the filtrate) ([1]; Conc. PFTsorb 75 mg/l) [µg/L] | Concentration PFT (residual concentration of PFT in the filtrate) ([1]; Conc. PFTsorb 100 mg/l) [µg/L] | precipitation of the formed adduct after contact with raw water [2] | residual PFT concentration in the treated raw water [2]
1 | hydrolyzed 3-chloro-2-hydroxy-propyl dimethyl dodecyl ammonium chloride [Example 2] | 3.83 | 2.08 | 1.03 | 0.54 | – | –
2 | dioleoyl ethyl-hydroxyethylmonium methosulfate | – | – | – | – | visually easy to perceive precipitation products | clearly reduced
3 | 1-propanaminium-3-amino-N-carboxymethyl-N,N-dimethyl-N-C8-C18 acyl derivative [Tego Betaine F50] | – | – | – | – | visually easy to perceive precipitation products | clearly reduced
4 | CCCCCCCCCCCCCC[N+](C)(C)C.[Cl-] [Example 4, (1-tetradecyl)trimethyl ammonium chloride] | 3.23 | 1.1 | 0.65 | 0.32 | – | –
5 | CCCCCCCCCCCC[N+](C)(C)C.[Cl-] [Example 3, (1-dodecyl)trimethyl ammonium chloride] | 3.65 | 1.09 | 0.62 | 0.34 | – | –
6 | CCCCCCCCCCCC[N+](C)(C)CC(O)CCl.[Cl-] (centres unmarked) [Example 1, 3-chloro-2-hydroxy-propyl dimethyl dodecyl ammonium chloride] | 2.08 | 1.08 | 0.74 | 0.48 | – | –
